No constants are given. Whether binding was seen depends on the method and setting. Binding seen in cells or lysates may run through a third protein. These calls come from enrichment with a bait or labelling near it, and not all partners need be listed.
B1: CCNQ (FAM58A) (protein, UniProt Q8N1B3 1-248)
chain: MEAPEGGGGGPAARGPEGQPAPEARVHFRVARFIMEAGVKLGMRSIPIATACTIYHKFFCETNLDAYDPYLIAMSSIYLAGKVEEQHLRTRDIINVSNRYFNPSGEPLELDSRFWELRDSIVQCELLMLRVLRFQVSFQHPHKYLLHYLVSLQNWLNRHSWQRTPVAVTAWALLRDSYHGALCLRFQAQHIAVAVLYLALQVYGVEVPAEVEAEKPWWQVFNDDLTKPIIDNIVSDLIQIYTMDTEIP
B2: tetratricopeptide repeat protein 14 (TTC14) (protein, UniProt Q96N46 1-770)
chain: MDRDLLRQSLNCHGSSLLSLLRSEQQDNPHFRSLLGSAAEPARGPPPQHPLQGRKEKRVDNIEIQKFISKKADLLFALSWKSDAPATSEINEDSEDHYAIMPPLEQFMEIPSMDRRELFFRDIERGDIVIGRISSIREFGFFMVLICLGSGIMRDIAHLEITALCPLRDVPSHSNHGDPLSYYQTGDIIRAGIKDIDRYHEKLAVSLYSSSLPPHLSGIKLGVISSEELPLYYRRSVELNSNSLESYENVMQSSLGFVNPGVVEFLLEKLGIDESNPPSLMRGLQSKNFSEDDFASALRKKQSASWALKCVKIGVDYFKVGRHVDAMNEYNKALEIDKQNVEALVARGALYATKGSLNKAIEDFELALENCPTHRNARKYLCQTLVERGGQLEEEEKFLNAESYYKKALALDETFKDAEDALQKLHKYMQKSLELREKQAEKEEKQKTKKIETSAEKLRKLLKEEKRLKKKRRKSTSSSSVSSADESVSSSSSSSSSGHKRHKKHKRNRSESSRSSRRHSSRASSNQIDQNRKDECYPVPANTSASFLNHKQEVEKLLGKQDRLQYEKTQIKEKDRCPLSSSSLEIPDDFGGRSEDPRDFYNSYKTQAGSSKTEKPYKSERHFSSRRNSSDSFCRNSEDKIYGYRRFEKDIEGRKEHYRRWEPGSVRHSTSPASSEYSWKSVEKYKKYAHSGSRDFSRHEQRYRLNTNQGEYEREDNYGEDIKTEVPEEDALSSKEHSESSVKKNLPQNLLNIFNQIAEFEKEKGNKSKN
B3: retinoblastoma-like protein 1 (RBL1) (protein, UniProt P28749 1-1068)
chain: MFEDKPHAEGAAVVAAAGEALQALCQELNLDEGSAAEALDDFTAIRGNYSLEGEVTHWLACSLYVACRKSIIPTVGKGIMEGNCVSLTRILRSAKLSLIQFFSKMKKWMDMSNLPQEFRERIERLERNFEVSTVIFKKYEPIFLDIFQNPYEEPPKLPRSRKQRRIPCSVKDLFNFCWTLFVYTKGNFRMIGDDLVNSYHLLLCCLDLIFANAIMCPNRQDLLNPSFKGLPSDFHTADFTASEEPPCIIAVLCELHDGLLVEAKGIKEHYFKPYISKLFDRKILKGECLLDLSSFTDNSKAVNKEYEEYVLTVGDFDERIFLGADAEEEIGTPRKFTRDTPLGKLTAQANVEYNLQQHFEKKRSFAPSTPLTGRRYLREKEAVITPVASATQSVSRLQSIVAGLKNAPSDQLINIFESCVRNPVENIMKILKGIGETFCQHYTQSTDEQPGSHIDFAVNRLKLAEILYYKILETVMVQETRRLHGMDMSVLLEQDIFHRSLMACCLEIVLFAYSSPRTFPWIIEVLNLQPFYFYKVIEVVIRSEEGLSRDMVKHLNSIEEQILESLAWSHDSALWEALQVSANKVPTCEEVIFPNNFETGNGGNVQGHLPLMPMSPLMHPRVKEVRTDSGSLRRDMQPLSPISVHERYSSPTAGSAKRRLFGEDPPKEMLMDKIITEGTKLKIAPSSSITAENVSILPGQTLLTMATAPVTGTTGHKVTIPLHGVANDAGEITLIPLSMNTNQESKVKSPVSLTAHSLIGASPKQTNLTKAQEVHSTGINRPKRTGSLALFYRKVYHLASVRLRDLCLKLDVSNELRRKIWTCFEFTLVHCPDLMKDRHLDQLLLCAFYIMAKVTKEERTFQEIMKSYRNQPQANSHVYRSVLLKSIPREVVAYNKNINDDFEMIDCDLEDATKTPDCSSGPVKEERGDLIKFYNTIYVGRVKSFALKYDLANQDHMMDAPPLSPFPHIKQQPGSPRRISQQHSIYISPHKNGSGLTPRSALLYKFNGSPSKSLKDINNMIRQGEQRTKKRVIAIDSDAESPAKRVCQENDDVLLKRLQDVVSERANH
B4: transcription factor Dp-2 (TFDP2) (protein, UniProt Q14188 1-446)
chain: MTAKNVGLTSTNAEVRGFIDQNLSPTKGNISFVAFPVSNTNSPTKILPKTLGPINVNVGPQMIISTPQRLTSSGSVLIGSPYTPAPAMVTQTHIAEATGWVPGDRKRARKFIDSDFSESKRSKKGDKNGKGLRHFSMKVCEKVQRKGTTSYNEVADELVSEFTNSNNHLAADSAYDQKNIRRRVYDALNVLMAMNIISKEKKEIKWIGLPTNSAQECQNLEIEKQRRIERIKQKRAQLQELLLQQIAFKNLVQRNRQNEQQNQGPPALNSTIQLPFIIINTSRKTVIDCSISSDKFEYLFNFDNTFEIHDDIEVLKRMGMSFGLESGKCSLEDLKLAKSLVPKALEGYITDISTGPSWLNQGLLLNSTQSVSNLDLTTGATLPQSSVNQGLCLDAEVALATGQFLAPNSHQSSSAASHCSESRGETPCSFNDEDEEDDEEDSSSPE
B5: geminin (GMNN) (protein, UniProt O75496 1-209)
chain: MNPSMKQKQEEIKENIKNSSVPRRTLKMIQPSASGSLVGRENELSAGLSKRKHRNDHLTSTTSSPGVIVPESSENKNLGGVTQESFDLMIKENPSSQYWKEVAEKRRKALYEALKENEKLHKEIEQKDNEIARLKKENKELAEVAEHVQYMAELIERLNGEPLDNFESLDNQEFDSEEETVEDSLVEDSEIGTCAEGTVSSSTDAKPCI
B6: CDK5 and ABL1 enzyme substrate 1 (CABLES1) (protein, UniProt Q8TDN4 1-633)
chain: MAAAAAAATTAACSSGSAGTDAAGASGLQQPPPQPQPQPAAAAPAQPPPEPPRKPRMDPRRRQAALSFLTNISLDGRLPPQDAEWGGGEEGGAAKPGAGGACGARTRFSLLAAAERGGCIALAAPGTPAAGLAAGSGPCLPQPSSLPPLIPGGHATVSGPGVARGFASPLGAGRASGEQWQPPRPAPLAACAQLQLLDGSGAAGQEELEEDDAFISVQVPAAAFLGSGTPGSGSGSRGRLNSFTQGILPIAFSRPTSQNYCSLEQPGQGGSTSAFEQLQRSRRRLISQRSSLETLEDIEENAPLRRCRTLSGSPRPKNFKKIHFIKNMRQHDTRNGRIVLISGRRSFCSIFSVLPYRDSTQVGDLKLDGGRQSTGAVSLKEIIGLEGVELGADGKTVSYTQFLLPTNAFGARRNTIDSTSSFSQFRNLSHRSLSIGRASGTQGSLDTGSDLGDFMDYDPNLLDDPQWPCGKHKRVLIFPSYMTTVIDYVKPSDLKKDMNETFKEKFPHIKLTLSKIRSLKREMRKLAQEDCGLEEPTVAMAFVYFEKLALKGKLNKQNRKLCAGACVLLAAKIGSDLKKHEVKHLIDKLEEKFRLNRRELIAFEFPVLVALEFALHLPEHEVMPHYRRLVQSS
B7: CDK5 and ABL1 enzyme substrate 2 (CABLES2) (protein, UniProt Q9BTV7 1-478)
chain: MAAAAAGGAPGPAPGPAGPPPPAAPTSAARAPPQALRRRGDSRRRQAALFFLNNISLDGRPPSLGPGGEKPPPPPAEAREPPAPPPPEPPTGLPARTPAPQGLLSPTQVPTGLGLDGQRQRKRVTSQRCSLEFLEDAVGCAPAQRTKHTSGSPRHKGLKKTHFIKNMRQYDTRNSRIVLICAKRSLCAAFSVLPYGEGLRISDLRVDSQKQRHPSGGVSVSSEMVFELEGVELGADGKVVSYAKFLYPTNALVTHKSDSHGLLPTPRPSVPRTLPGSRHKPAPTKSAPASTELGSDVGDTLEYNPNLLDDPQWPCGKHKRVLIFASYMTTVIEYVKPSDLKKDMNETFREKFPHVKLTLSKIRSLKREMRSLSEECSLEPVTVAMAYVYFEKLVLQGKLSKQNRKLCAGACVLLAAKISSDLRKSGVTQLIDKLEERFRFNRRDLIGFEFTVLVALELALYLPENQVLPHYRRLTQQF
B8: PURA (protein, UniProt Q00577 1-322)
chain: MADRDSGSEQGGAALGSGGSLGHPGSGSGSGGGGGGGGGGGGSGGGGGGAPGGLQHETQELASKRVDIQNKRFYLDVKQNAKGRFLKIAEVGAGGNKSRLTLSMSVAVEFRDYLGDFIEHYAQLGPSQPPDLAQAQDEPRRALKSEFLVRENRKYYMDLKENQRGRFLRIRQTVNRGPGLGSTQGQTIALPAQGLIEFRDALAKLIDDYGVEEEPAELPEGTSLTVDNKRFFFDVGSNKYGVFMRVSEVKPTYRNSITVPYKVWAKFGHTFCKYSEEMKKIQEKQREKRAACEQLHQQQQQQQEETAAATLLLQGEEEGEED

Protein sequences, listed by entry. Tags and fused reporters are not part of them.
UniProt Q15131: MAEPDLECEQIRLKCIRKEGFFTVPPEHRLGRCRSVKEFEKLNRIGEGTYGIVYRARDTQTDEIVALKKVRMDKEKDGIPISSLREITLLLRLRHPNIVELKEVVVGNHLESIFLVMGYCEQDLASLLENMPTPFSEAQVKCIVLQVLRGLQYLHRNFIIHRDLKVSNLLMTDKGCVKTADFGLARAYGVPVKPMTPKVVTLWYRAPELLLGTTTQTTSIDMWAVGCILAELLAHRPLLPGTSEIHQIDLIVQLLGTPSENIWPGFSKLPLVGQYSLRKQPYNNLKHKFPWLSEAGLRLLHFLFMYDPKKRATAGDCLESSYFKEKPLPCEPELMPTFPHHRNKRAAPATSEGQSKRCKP
UniProt P41240: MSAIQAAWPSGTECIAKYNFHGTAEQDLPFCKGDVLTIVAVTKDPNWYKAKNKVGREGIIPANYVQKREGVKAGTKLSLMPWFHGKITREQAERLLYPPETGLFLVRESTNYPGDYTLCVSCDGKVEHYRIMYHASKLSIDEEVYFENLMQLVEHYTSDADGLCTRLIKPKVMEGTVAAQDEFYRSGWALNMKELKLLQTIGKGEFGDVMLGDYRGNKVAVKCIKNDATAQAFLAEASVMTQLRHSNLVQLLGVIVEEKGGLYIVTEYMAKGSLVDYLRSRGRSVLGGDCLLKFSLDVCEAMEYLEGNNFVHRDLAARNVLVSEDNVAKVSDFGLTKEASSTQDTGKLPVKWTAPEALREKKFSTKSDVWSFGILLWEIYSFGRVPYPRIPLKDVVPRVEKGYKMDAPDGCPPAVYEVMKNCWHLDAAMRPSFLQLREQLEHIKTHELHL

Target: CDK10 (human (endogenous in cancer cell lines)) (UniProt Q15131)
Test: affinity purification with mass spectrometry

With B1 as the binder, how does the binding read?
The binding was “binds”.

With B2 as the binder, how does the binding read?
The binding was “binds”.

Which binding does the source give for B3 here?
Its binding is “binds”.

For B4, which binding is on record?
The binding was “binds”.

B5 was tested. Which binding did it give?
Its binding is “binds”.

With B6 as the binder, how does the binding read?
The binding was “binds”.

How did the binding turn out when B7 was run?
Its binding is “binds”.

Target: CSK (human (endogenous in Jurkat, FOCUS and other cancer cell lines)) (UniProt P41240)
Test: affinity purification with mass spectrometry

B8 was tested. Which binding did it give?
The binding was “binds”.

Reference: paper doi:10.1101/2021.09.14.460283
